Laboratory results from article PMC9772344.

Amino acid sequences for entries named in this document (tags omitted). A change or cut given only in a name is not applied to a line headed by its entry. Residues count along the entry.
UniProt Q13586, residues 23-685: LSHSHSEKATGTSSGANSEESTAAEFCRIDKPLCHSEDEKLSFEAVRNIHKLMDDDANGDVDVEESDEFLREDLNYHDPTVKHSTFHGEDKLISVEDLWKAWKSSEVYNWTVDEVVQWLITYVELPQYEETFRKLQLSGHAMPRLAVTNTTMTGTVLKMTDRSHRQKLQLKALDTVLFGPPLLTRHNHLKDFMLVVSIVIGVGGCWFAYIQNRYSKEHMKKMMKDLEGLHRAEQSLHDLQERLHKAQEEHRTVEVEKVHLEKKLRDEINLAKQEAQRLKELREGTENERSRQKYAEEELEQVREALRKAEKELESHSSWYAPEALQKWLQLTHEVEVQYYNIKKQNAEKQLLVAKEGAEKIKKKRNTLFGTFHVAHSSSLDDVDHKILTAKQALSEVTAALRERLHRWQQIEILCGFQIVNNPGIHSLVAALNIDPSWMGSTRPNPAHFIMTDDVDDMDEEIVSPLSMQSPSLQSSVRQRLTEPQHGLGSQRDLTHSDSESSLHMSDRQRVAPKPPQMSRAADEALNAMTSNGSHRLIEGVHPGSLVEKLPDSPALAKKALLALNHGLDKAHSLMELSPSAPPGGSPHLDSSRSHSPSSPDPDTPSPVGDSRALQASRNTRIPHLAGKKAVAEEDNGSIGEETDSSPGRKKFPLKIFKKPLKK
UniProt P43006: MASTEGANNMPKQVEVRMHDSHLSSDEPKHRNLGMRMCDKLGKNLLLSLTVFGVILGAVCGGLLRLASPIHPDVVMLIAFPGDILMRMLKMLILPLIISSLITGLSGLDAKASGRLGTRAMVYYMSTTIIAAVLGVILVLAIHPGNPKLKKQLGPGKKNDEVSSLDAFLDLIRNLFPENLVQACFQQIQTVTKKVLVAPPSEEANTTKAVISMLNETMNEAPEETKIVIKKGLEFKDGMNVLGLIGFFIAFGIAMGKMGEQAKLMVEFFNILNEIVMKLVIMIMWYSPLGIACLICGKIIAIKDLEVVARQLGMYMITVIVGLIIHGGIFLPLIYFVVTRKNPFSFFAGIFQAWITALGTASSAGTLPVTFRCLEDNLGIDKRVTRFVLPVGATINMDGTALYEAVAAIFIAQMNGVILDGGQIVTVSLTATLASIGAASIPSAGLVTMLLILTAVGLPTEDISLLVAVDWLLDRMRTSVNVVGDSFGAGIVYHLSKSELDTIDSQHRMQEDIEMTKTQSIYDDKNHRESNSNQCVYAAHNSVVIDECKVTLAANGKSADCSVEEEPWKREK
UniProt Q96D31: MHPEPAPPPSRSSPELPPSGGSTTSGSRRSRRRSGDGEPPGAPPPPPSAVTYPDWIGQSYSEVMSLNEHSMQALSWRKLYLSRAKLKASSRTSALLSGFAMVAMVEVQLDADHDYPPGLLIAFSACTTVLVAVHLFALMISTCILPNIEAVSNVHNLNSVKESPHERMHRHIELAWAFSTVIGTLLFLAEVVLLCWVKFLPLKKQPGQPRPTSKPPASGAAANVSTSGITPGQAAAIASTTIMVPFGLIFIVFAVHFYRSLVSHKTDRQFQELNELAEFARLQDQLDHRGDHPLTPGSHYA

Experiments:
[1] = biological target: stromal-interacting molecule 1 (STIM1) (human (endogenous in HeLa)) (UniProt Q13586); experiment: co-IP; anti-STIM1 as the capture antibody (2 ug antibody on 2 mg protein sample, 4 °C, 24 h, protein A/G beads); lysates of cells transfected with SK, WT or mutant GLT-1 plasmids; Western blot for GLT-1 and Orai1
[2] = biological target: GLT-1 L85P (UniProt P43006); experiment: co-IP; anti-GLT-1 as the capture antibody (2 ug antibody on 2 mg protein sample, 4 °C, 24 h, protein A/G beads); lysates of cells transfected with SK, WT or mutant GLT-1 plasmids; Western blot for STIM1 and Orai1
[3] = biological target: GLT-1 P289R (UniProt P43006); experiment: as above
[4] = biological target: GLT-1 G82R (UniProt P43006); experiment: as above

| Substance | binding [1] | binding [2] | binding [3] | binding [4] |
| --- | --- | --- | --- | --- |
| GLT-1 P289R (from UniProt P43006) | binds | – | – | – |
| GLT-1 G82R (from UniProt P43006) | binds | – | – | – |
| Orai1 (from UniProt Q96D31 1-301) | – | binds | binds | binds |
| stromal-interacting molecule 1 (STIM1) (from UniProt Q13586 23-685) | – | binds | binds | binds |
| GLT-1 L85P (from UniProt P43006) | binds | – | – | – |

These are yes or no findings as the source states them, for the method shown. Binding seen in cells or lysates may run through a third protein. A result given as binding can be weak or reduced; the word gives no strength.
